Experimental data reported in article doi:10.1101/089763.

Target: T1, HRDE-1 (C. elegans (endogenous in whole animals)) (UniProt Q09249)
T1 sequence: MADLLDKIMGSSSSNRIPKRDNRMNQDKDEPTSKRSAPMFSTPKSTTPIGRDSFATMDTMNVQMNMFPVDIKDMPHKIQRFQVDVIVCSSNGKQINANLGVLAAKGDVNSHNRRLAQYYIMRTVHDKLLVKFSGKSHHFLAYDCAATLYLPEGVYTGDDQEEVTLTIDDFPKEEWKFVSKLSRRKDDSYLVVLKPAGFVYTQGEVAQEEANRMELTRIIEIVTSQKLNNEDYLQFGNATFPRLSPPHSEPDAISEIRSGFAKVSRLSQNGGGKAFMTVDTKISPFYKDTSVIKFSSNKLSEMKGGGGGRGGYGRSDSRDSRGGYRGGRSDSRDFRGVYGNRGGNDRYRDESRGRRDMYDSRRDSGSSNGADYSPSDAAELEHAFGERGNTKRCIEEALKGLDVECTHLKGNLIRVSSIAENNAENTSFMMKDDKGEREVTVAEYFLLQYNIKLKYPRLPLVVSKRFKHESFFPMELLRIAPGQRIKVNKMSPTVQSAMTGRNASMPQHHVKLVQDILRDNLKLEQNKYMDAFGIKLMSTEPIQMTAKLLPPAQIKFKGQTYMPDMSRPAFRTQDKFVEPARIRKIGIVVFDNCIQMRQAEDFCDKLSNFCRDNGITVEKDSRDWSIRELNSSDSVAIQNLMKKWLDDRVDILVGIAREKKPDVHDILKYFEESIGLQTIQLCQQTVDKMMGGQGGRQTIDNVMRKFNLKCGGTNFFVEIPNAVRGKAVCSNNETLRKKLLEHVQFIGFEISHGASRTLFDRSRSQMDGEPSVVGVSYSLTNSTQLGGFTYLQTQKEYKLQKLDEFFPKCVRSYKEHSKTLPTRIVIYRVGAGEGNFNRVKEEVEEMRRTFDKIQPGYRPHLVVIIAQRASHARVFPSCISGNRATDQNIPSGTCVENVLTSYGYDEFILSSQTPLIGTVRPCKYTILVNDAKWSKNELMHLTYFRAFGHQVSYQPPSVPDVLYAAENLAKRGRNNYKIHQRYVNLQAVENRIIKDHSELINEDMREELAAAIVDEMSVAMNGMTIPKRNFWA
Assay: affinity purification with mass spectrometry

binding, binds:
ALY (exon-junction complex protein detected in HRDE-1 IPs) (C. elegans (endogenous in whole animals))
Aquarius/EMB-4 (C. elegans (endogenous in whole animals))
eIF4A3 (exon-junction complex protein detected in HRDE-1 IPs) (C. elegans (endogenous in whole animals))

These are yes or no findings as the source states them, for the method shown. Binding seen in cells or lysates may run through a third protein. Here binding means that the protein was enriched with, or labelled near, the bait; the list need not be complete.
